The values that follow come from patent publication US20050059628A1.

By UniProt entry, the sequences of proteins in these tests, tags left out. Where a name states a change or a piece, a line headed by the entry shows the natural chain unless it says otherwise. Residues count along the entry.
UniProt P35222, residues 2-781: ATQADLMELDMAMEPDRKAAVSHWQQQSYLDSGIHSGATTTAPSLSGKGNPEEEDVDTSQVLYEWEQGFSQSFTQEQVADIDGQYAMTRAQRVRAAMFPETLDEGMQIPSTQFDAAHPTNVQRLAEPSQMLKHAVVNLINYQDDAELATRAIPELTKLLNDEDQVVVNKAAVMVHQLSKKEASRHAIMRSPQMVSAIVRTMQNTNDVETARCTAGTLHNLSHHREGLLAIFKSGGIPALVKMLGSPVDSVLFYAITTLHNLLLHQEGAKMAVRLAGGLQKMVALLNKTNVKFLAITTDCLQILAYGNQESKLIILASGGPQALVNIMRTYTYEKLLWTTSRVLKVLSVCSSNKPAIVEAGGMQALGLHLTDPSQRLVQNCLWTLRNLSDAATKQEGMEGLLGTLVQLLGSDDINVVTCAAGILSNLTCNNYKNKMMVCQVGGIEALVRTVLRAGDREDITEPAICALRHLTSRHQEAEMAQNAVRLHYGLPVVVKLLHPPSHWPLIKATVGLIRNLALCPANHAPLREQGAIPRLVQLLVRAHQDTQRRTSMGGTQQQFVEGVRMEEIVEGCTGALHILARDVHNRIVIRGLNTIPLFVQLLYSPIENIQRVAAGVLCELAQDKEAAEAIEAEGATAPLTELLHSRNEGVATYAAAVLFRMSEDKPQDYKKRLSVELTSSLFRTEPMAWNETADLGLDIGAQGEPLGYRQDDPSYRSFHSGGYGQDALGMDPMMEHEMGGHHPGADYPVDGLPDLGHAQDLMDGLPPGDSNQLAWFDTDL
UniProt Q92793, residues 2-2442: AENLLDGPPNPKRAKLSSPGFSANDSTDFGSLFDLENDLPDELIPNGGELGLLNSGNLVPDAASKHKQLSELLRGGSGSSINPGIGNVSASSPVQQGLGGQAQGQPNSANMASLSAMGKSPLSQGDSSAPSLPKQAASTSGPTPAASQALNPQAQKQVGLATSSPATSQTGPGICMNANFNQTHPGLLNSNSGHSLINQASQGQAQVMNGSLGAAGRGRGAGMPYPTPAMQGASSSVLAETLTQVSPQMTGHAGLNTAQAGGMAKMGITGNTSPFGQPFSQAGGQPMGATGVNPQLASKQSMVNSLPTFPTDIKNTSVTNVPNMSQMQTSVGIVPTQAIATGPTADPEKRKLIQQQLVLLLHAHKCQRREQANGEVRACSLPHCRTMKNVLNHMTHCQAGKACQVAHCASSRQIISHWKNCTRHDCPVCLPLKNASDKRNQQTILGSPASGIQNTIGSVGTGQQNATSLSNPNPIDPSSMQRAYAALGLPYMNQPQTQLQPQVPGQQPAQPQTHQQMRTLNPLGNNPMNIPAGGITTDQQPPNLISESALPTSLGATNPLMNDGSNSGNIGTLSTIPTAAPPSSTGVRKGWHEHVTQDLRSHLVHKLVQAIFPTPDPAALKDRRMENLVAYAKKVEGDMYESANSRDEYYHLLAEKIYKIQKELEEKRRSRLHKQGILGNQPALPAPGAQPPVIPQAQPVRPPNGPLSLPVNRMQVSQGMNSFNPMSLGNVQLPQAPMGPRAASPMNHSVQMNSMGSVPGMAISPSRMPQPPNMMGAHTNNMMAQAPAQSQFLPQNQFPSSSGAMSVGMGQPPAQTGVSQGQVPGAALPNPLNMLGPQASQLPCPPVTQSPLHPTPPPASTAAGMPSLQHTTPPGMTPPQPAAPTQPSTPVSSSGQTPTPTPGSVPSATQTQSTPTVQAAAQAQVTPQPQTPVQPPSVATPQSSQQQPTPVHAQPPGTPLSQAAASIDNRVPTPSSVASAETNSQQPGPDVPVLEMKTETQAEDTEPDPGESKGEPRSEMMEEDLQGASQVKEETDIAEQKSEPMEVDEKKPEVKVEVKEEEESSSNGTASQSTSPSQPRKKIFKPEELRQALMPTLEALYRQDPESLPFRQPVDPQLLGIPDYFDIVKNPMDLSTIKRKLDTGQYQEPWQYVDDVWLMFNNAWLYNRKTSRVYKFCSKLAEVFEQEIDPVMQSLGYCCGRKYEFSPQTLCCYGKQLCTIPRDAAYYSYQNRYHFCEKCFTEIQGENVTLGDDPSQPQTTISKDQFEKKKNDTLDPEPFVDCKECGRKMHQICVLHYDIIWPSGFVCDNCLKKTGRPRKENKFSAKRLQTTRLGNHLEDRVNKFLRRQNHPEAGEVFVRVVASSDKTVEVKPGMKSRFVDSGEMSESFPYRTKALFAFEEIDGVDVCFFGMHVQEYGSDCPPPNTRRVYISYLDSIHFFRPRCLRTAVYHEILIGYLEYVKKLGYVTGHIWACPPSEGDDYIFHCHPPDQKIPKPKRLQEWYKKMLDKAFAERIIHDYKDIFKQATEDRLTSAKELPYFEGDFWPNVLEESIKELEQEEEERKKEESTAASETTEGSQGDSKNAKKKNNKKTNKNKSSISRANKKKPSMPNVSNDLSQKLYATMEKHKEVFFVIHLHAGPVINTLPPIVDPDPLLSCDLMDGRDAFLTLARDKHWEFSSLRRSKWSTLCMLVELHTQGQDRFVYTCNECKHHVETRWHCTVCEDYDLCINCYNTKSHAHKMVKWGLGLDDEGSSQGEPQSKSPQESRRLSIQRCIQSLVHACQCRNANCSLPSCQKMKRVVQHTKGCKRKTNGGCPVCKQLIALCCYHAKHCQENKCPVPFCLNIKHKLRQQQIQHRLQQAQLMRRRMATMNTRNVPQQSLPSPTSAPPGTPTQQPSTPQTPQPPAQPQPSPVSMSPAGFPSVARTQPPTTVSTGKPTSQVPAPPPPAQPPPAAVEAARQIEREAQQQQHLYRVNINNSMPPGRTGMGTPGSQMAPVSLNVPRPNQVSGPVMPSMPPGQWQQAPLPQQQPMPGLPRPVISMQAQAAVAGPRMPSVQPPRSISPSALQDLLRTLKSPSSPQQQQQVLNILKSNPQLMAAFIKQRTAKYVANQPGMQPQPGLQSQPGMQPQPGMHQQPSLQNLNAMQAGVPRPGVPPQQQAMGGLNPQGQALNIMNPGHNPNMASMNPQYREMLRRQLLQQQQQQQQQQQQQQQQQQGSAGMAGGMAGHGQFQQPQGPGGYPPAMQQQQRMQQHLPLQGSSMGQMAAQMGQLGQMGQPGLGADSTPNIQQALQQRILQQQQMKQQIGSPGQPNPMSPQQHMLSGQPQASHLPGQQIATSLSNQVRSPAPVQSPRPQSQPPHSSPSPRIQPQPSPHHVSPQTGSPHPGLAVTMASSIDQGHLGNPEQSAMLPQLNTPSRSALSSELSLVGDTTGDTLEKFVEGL
UniProt Q09472: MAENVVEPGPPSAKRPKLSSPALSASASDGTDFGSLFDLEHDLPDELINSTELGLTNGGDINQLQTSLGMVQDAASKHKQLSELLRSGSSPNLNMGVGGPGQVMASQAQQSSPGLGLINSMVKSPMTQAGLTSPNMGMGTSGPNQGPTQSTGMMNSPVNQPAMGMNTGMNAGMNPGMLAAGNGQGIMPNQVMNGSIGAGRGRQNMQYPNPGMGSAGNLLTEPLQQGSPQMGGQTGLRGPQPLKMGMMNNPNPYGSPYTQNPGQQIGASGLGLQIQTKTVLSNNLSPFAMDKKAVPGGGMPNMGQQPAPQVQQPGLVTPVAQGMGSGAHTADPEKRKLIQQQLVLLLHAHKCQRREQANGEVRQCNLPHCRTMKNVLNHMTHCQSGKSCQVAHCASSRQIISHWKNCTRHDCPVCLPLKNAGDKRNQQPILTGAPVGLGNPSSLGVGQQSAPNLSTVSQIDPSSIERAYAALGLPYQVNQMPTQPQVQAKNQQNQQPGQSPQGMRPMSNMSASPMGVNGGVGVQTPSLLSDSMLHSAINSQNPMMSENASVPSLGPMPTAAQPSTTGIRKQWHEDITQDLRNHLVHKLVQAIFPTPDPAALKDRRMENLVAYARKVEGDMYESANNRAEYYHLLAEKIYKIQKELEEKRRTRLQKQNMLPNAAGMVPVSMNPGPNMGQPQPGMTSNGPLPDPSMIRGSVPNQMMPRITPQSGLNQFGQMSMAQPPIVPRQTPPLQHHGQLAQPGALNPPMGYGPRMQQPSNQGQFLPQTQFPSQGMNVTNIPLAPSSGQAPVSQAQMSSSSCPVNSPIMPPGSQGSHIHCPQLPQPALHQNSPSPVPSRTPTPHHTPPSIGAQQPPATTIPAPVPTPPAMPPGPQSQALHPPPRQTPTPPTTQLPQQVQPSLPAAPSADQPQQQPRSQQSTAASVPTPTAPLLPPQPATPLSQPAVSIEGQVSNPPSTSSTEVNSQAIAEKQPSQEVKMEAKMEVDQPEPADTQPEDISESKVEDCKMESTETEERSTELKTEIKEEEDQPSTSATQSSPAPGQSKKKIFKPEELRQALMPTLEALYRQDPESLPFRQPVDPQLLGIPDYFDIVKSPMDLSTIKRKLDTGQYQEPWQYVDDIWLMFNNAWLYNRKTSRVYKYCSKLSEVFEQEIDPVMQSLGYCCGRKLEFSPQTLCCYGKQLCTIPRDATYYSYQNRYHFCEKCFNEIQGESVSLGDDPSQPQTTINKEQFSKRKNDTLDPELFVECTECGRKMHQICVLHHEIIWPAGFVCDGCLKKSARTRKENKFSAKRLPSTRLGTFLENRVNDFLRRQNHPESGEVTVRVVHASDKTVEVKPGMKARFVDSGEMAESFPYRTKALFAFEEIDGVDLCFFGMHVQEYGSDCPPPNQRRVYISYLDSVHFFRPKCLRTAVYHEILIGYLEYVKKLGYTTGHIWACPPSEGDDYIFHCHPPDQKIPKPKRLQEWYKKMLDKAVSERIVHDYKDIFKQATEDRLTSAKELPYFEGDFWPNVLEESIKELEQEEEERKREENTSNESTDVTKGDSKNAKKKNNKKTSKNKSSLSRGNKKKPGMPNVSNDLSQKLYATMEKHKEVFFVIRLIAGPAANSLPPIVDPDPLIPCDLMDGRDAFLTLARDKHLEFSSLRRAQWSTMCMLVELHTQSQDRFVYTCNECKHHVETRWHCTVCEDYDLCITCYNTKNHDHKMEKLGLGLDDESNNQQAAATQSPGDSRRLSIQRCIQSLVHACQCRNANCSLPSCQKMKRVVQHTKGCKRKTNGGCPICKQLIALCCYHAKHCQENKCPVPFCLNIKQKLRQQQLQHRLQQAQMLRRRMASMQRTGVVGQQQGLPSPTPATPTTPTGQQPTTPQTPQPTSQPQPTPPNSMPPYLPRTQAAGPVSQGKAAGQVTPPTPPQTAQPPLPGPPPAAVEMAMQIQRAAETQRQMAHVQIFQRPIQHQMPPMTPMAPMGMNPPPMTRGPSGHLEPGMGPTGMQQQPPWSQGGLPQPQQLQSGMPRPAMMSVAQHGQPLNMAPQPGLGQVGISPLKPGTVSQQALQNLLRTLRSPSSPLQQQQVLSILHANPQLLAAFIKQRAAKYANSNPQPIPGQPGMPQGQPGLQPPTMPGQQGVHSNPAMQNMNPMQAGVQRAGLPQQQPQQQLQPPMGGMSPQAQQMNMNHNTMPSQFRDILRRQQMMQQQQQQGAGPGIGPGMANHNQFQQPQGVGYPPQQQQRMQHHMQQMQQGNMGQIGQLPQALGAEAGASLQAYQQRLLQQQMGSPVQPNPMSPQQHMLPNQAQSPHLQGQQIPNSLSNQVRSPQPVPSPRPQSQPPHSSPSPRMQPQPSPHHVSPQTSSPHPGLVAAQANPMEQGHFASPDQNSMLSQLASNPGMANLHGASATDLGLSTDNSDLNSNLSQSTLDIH
CBP (1-351) (P45481, residues 1-351): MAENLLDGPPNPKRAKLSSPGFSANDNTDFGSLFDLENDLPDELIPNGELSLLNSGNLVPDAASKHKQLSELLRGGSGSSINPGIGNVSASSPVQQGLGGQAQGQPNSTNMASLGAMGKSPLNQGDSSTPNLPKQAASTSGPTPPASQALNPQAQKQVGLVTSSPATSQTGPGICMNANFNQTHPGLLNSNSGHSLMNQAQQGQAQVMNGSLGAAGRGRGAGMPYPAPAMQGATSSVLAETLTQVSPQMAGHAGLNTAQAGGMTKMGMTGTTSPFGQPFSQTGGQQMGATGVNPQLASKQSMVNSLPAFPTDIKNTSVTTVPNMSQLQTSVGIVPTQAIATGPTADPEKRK
CBP (1-211) (P45481, residues 1-211): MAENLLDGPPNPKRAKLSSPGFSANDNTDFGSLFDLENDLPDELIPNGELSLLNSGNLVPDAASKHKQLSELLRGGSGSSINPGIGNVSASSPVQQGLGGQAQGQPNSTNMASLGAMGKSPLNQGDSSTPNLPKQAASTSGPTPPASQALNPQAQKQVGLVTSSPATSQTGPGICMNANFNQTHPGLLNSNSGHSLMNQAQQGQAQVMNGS

These are yes or no findings as the source states them, for the method shown. In cells and extracts the contact can be indirect. Some binding calls cover weakened binding; strength is not graded here.

Assay [1] deals with full-length endogenous β-catenin (SW480 cells) (human (endogenous in human SW480 cells)) (UniProt P35222). The assay can be described thus: co-immunoprecipitation from SW480 lysates with anti-CBP antibody, immunoblot with anti-β-catenin.
For assay [2] the target is unchanged. The assay can be described thus: co-immunoprecipitation in SW480 cells.
Assay [3] has the same target. The assay can be described thus: co-immunoprecipitation from SW480 lysates with anti-CBP antibody, immunoblot with anti-β-catenin (FIG. 3B).
For assay [4] the target is unchanged. The assay can be described thus: co-immunoprecipitation from transfected SW480 lysates with anti-β-catenin antibody, immunoblot with anti-His.
The target is the same in assay [5]. The assay can be described thus: co-immunoprecipitation from transfected SW480 cells, challenged with COMPOUND 1.
The target is the same in assay [6]. The assay can be described thus: co-immunoprecipitation of deletion constructs with anti-β-catenin antibody.
For assay [7] the target is unchanged. The assay can be described thus: co-immunoprecipitation from SW480 lysates with anti-p300 antibody, immunoblot with anti-β-catenin (FIG. 3B).
The target is the same in assay [8]. The assay can be described thus: co-immunoprecipitation from SW480 lysates with anti-p300 antibody, immunoblot with anti-β-catenin.
The target is the same in assay [9]. The assay can be described thus: co-immunoprecipitation of CBP deletion series with anti-β-catenin antibody, immunoblot with anti-His (FIG. 3C).

Take “CREB-binding protein (CBP), endogenous in SW480 cells (from UniProt Q92793 2-2442)”: the binding result in [1], in assay [2] and in [3] was “binds” throughout.

For “p300 (1-351) (from UniProt Q09472 1-351)”, in assay [4], the binding result is recorded as “binds”.

Take “p300 (1-111) (from UniProt Q09472 1-111)”: the binding result in [4], in [5] and in assay [6] was “binds” each time.

Turning to “p300, endogenous in SW480 cells (from UniProt Q09472 2-2414)”, the binding result in [2], in assay [7] and in [8] was “binds” throughout.

For CBP (1-351) (from UniProt P45481 1-351), in assay [4], the binding result is “binds”.

As for CBP (1-211) (from UniProt P45481 1-211), the binding entry in assay [4] is on record as “binds”.

Turning to “p300 (1-211) (from UniProt Q09472 1-211)”, the binding entry in assay [4] is reported as “binds”.

Regarding CBP (1-111) (from UniProt P45481 1-108), the binding result in assay [4], in assay [5], in [6] and in assay [9] was “binds” throughout.
